Assay results: US20200062738A1, “ANTI-CANCER STEMNESS DRUGS” (Development Center for Biotechnology, priority 2017, published 2020)

How the values were obtained:
H1975 cells = conditions: serum-free matrigel, different concentrations
MCL-1 = MCL-1 protein expression by western blot in H1975 cells; assay type: cell-based, human
Method: (§1) The abilities of compounds of the invention to inhibit BMI-1/MCl-1 expressions were assayed with cell cultures. BMI-1 and MCL-1 are overexpressed in many cancers, such as lung cancer cell line H1975. Therefore, cancer cells that overexpress BMI-1/MCL-1 provide a convenient platform for assaying BMI-1/MCL-1 inhibition.
(§2) After drug treatments, cells were washed twice with PBS, scraped, and resuspended in RIPA buffer containing protease inhibitors (20 mM Tris-HCl pH 7.5, 150 mM NaCl, 1 mM Na2EDTA, 1 mM EGTA, 1% NP-40, 1% sodium deoxycholate, 2.5 mM sodium pyrophosphate, 1 mM b-glycerophosphate, 1 mM Na3VO4, 1 μg/ml leupeptin). Cell lysate was sonicated for 5-10 min, and centrifuged at 14000 rpm for 20 minutes at 4° C. The supernatant was collected, determined for protein concentrations, and stored at −80° C. before further use.
(§3) BMI-1/MCL-1 expression levels may be assessed with western blot analysis. […] The denatured protein samples were then loaded in 10% Tris-Glycine SDS polyacrylamide gel for separating proteins. The power supply for the running condition was set at 80 V for running stacking gel and 100 V for separating gel, respectively. […] The power supply for the transfer condition was set at 300 mA, and the transfer was carried out on ice for 2.5 hours. […]

BMI-1 = BMI-1 protein expression by western blot in H1975 cells; assay type: cell-based, human
Method: as §1, §2, §3

CCN(CC)C(=O)N[C@@H]1C=C2c3cccc4[nH]cc(c34)C[C@H]2N(C)C1 [lisuride, reference compound]
inhibition of H1975 cell spheroid formation (H1975 cells): dose-dependent manner
inhibition of MCL-1 expression, dose dependence (MCL-1): inhibition of BMI-1 and MCL-1 expressions
inhibition of BMI-1 expression, dose dependence (BMI-1): inhibited BMI-1 expression
